# From the supplement of paper PMC8728848
# The list shows a part of the results.
# B1: Langerin K299A/K313A (Homo sapiens), Q9UJ71 (protein)
# chain: STLNAQIPELKSDLEKASALNTKIRALQGSLENMSKLLKRQNDILQVVSQGWKYFKGNFYYFSLIPKTWYSAEQFCVSRNSHLTSVTSESEQEFLYKTAGGLIYWIGLTKAGMEGDWSWVDDTPFNKVQSARFWIPGEPNNAGNNEHCGNIAAPSLQAWNDAPCDATFLFICKRPYVPSEP
# Legend:
# Test in all cases: glycan array binding signal (z-score within array); higher = stronger binding
# Settings in all cases: glycan notation: IUPAC condensed, linker removed
# Gal6S(b1-4)Glc6S = molecular target: Gal6S(b1-4)Glc6S
# Outline: (§1)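 Glycan array data were curated from 3228 arrays in the Consortium for Functional Glycomics database and kept only where the protein sequence was available. Glycan names were converted to IUPAC-condensed notation, and columns mapping to the same glycan were averaged. The binding signal is a within-array Z-score, averaged across arrays of the same protein sequence at different concentrations or buffers and across linkers. Negative Z-scores can be read as non-binding.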
# Gal6S(b1-4)GlcNAc = molecular target: Gal6S(b1-4)GlcNAc
# Outline: as §1
# Gal6S(b1-4)GlcNAc6S = molecular target: Gal6S(b1-4)GlcNAc6S
# Outline: as §1
# GalNAc(a1-3)Gal = molecular target: GalNAc(a1-3)Gal
# Outline: as §1
# GalNAc(a1-3)GalNAc = molecular target: GalNAc(a1-3)GalNAc
# Outline: as §1
# [1] = molecular target: GalNAc(a1-3)GalNAc(a1-3)Gal(a1-4)Gal(b1-4)GlcNAc
# Outline: as §1
# [2] = molecular target: GalNAc(a1-3)GalNAc(b1-3)Gal(a1-4)Gal(b1-4)Glc
# Outline: as §1
# GalNAc(b1-3)Gal = molecular target: GalNAc(b1-3)Gal
# Outline: as §1
# [3] = molecular target: GalNAc(b1-3)Gal(a1-4)Gal(b1-4)GlcNAc
# Outline: as §1
# [4] = molecular target: GalNAc(b1-3)Gal(a1-4)Gal(b1-4)GlcNAc(b1-3)Gal(b1-4)Glc
# Outline: as §1
# [5] = molecular target: GalNAc(b1-3)Gal(a1-6)Gal(b1-4)Glc
# Outline: as §1
# GalNAc(b1-3)GalNAc = molecular target: GalNAc(b1-3)GalNAc
# Outline: as §1
# GalNAc(b1-3)GlcNAc = molecular target: GalNAc(b1-3)GlcNAc
# Outline: as §1
# GalNAc(b1-4)Gal(b1-4)Glc = molecular target: GalNAc(b1-4)Gal(b1-4)Glc
# Outline: as §1
# GalNAc(b1-4)GlcNAc = molecular target: GalNAc(b1-4)GlcNAc
# Outline: as §1
# [6] = molecular target: GalNAc(b1-4)GlcNAc(b1-2)Man
# Outline: as §1
# [7] = molecular target: GalNAc(b1-4)GlcNAc(b1-2)Man(a1-3)[GalNAc(b1-4)GlcNAc(b1-2)Man(a1-6)]Man(b1-4)GlcNAc(b1-4)GlcNAc
# Outline: as §1
# [8] = molecular target: GalNAc(b1-4)GlcNAc(b1-3)GalNAc(b1-4)GlcNAc
# Outline: as §1
# GalNAc(b1-4)GlcNAc6S = molecular target: GalNAc(b1-4)GlcNAc6S
# Outline: as §1
# GalNAc(b1-6)GalNAc = molecular target: GalNAc(b1-6)GalNAc
# Outline: as §1
# GalNAc3S(b1-4)GlcNAc = molecular target: GalNAc3S(b1-4)GlcNAc
# Outline: as §1
# GalNAc3S(b1-4)GlcNAc3S = molecular target: GalNAc3S(b1-4)GlcNAc3S
# Outline: as §1
# [9] = molecular target: GalNAc3S(b1-4)[Fuc(a1-3)]GlcNAc
# Outline: as §1
# GalNAc4S6S(b1-4)GlcNAc = molecular target: GalNAc4S6S(b1-4)GlcNAc
# Outline: as §1
# GalNAc6S(b1-4)GlcNAc = molecular target: GalNAc6S(b1-4)GlcNAc
# Outline: as §1
# Glc(a1-4)Glc = molecular target: Glc(a1-4)Glc
# Outline: as §1
# [10] = molecular target: Glc(a1-4)Glc(a1-4)Glc(a1-4)Glc
# Outline: as §1
# Glc(a1-6)Glc(a1-6)Glc = molecular target: Glc(a1-6)Glc(a1-6)Glc
# Outline: as §1
# [11] = molecular target: Glc(a1-6)Glc(a1-6)Glc(a1-6)Glc
# Outline: as §1
# Glc(b1-4)Glc = molecular target: Glc(b1-4)Glc
# Outline: as §1
# Glc(b1-6)Glc = molecular target: Glc(b1-6)Glc
# Outline: as §1
# GlcA(b1-3)Gal = molecular target: GlcA(b1-3)Gal
# Outline: as §1
# GlcA(b1-3)GlcNAc = molecular target: GlcA(b1-3)GlcNAc
# Outline: as §1
# GlcA(b1-6)Gal = molecular target: GlcA(b1-6)Gal
# Outline: as §1
# [12] = molecular target: GlcA3S(b1-3)Gal(b1-4)GlcNAc(b1-2)Man
# Outline: as §1
# [13] = molecular target: GlcA3S(b1-3)Gal(b1-4)GlcNAc(b1-3)Gal(b1-4)Glc
# Outline: as §1
# [14] = molecular target: GlcNAc(a1-3)Gal(b1-4)GlcNAc
# Outline: as §1
# [15] = molecular target: GlcNAc(a1-4)Gal(b1-3)GlcNAc
# Outline: as §1
# [16] = molecular target: GlcNAc(a1-4)Gal(b1-4)GalNAc
# Outline: as §1
# [17] = molecular target: GlcNAc(a1-4)Gal(b1-4)GlcNAc
# Outline: as §1
# [18] = molecular target: GlcNAc(a1-4)Gal(b1-4)GlcNAc(b1-3)Gal(b1-4)Glc
# Outline: as §1
# [19] = molecular target: GlcNAc(a1-4)Gal(b1-4)GlcNAc(b1-3)Gal(b1-4)GlcNAc
# Outline: as §1
# [20] = molecular target: GlcNAc(a1-4)Gal(b1-4)GlcNAc(b1-3)Gal(b1-4)GlcNAc(b1-3)Gal(b1-4)GlcNAc
# Outline: as §1
# [21] = molecular target: GlcNAc(a1-4)Gal(b1-4)GlcNAc(b1-3)Gal(b1-4)[Fuc(a1-3)]GlcNAc(b1-3)Gal(b1-4)[Fuc(a1-3)]GlcNAc
# Outline: as §1
# [22] = molecular target: GlcNAc(a1-6)Gal(b1-4)GlcNAc
# Outline: as §1
binder,measurement,setting,value
B1,glycan array binding signal (z-score),Gal6S(b1-4)Glc6S,-0.156
same,glycan array binding signal (z-score),Gal6S(b1-4)GlcNAc,0.749
same,glycan array binding signal (z-score),Gal6S(b1-4)GlcNAc6S,-0.004
same,glycan array binding signal (z-score),GalNAc(a1-3)Gal,-0.751
same,glycan array binding signal (z-score),GalNAc(a1-3)GalNAc,-0.656
same,glycan array binding signal (z-score),[1],-0.545
same,glycan array binding signal (z-score),[2],0.162
same,glycan array binding signal (z-score),GalNAc(b1-3)Gal,-0.458
same,glycan array binding signal (z-score),[3],-0.675
same,glycan array binding signal (z-score),[4],-1.32
same,glycan array binding signal (z-score),[5],0.155
same,glycan array binding signal (z-score),GalNAc(b1-3)GalNAc,-0.656
same,glycan array binding signal (z-score),GalNAc(b1-3)GlcNAc,-0.673
same,glycan array binding signal (z-score),GalNAc(b1-4)Gal(b1-4)Glc,0.297
same,glycan array binding signal (z-score),GalNAc(b1-4)GlcNAc,-0.122
same,glycan array binding signal (z-score),[6],-1
same,glycan array binding signal (z-score),[7],0.824
same,glycan array binding signal (z-score),[8],0.094
same,glycan array binding signal (z-score),GalNAc(b1-4)GlcNAc6S,-1.26
same,glycan array binding signal (z-score),GalNAc(b1-6)GalNAc,-0.509
same,glycan array binding signal (z-score),GalNAc3S(b1-4)GlcNAc,-0.815
same,glycan array binding signal (z-score),GalNAc3S(b1-4)GlcNAc3S,0.359
same,glycan array binding signal (z-score),[9],-1
same,glycan array binding signal (z-score),GalNAc4S6S(b1-4)GlcNAc,0.212
same,glycan array binding signal (z-score),GalNAc6S(b1-4)GlcNAc,-0.425
same,glycan array binding signal (z-score),Glc(a1-4)Glc,-0.103
same,glycan array binding signal (z-score),[10],-0.576
same,glycan array binding signal (z-score),Glc(a1-6)Glc(a1-6)Glc,0.636
same,glycan array binding signal (z-score),[11],-0.568
same,glycan array binding signal (z-score),Glc(b1-4)Glc,-0.813
same,glycan array binding signal (z-score),Glc(b1-6)Glc,-0.203
same,glycan array binding signal (z-score),GlcA(b1-3)Gal,-0.832
same,glycan array binding signal (z-score),GlcA(b1-3)GlcNAc,0.979
same,glycan array binding signal (z-score),GlcA(b1-6)Gal,-0.822
same,glycan array binding signal (z-score),[12],-1
same,glycan array binding signal (z-score),[13],-0.699
same,glycan array binding signal (z-score),[14],-1.22
same,glycan array binding signal (z-score),[15],-0.596
same,glycan array binding signal (z-score),[16],-0.167
same,glycan array binding signal (z-score),[17],-0.662
same,glycan array binding signal (z-score),[18],-0.826
same,glycan array binding signal (z-score),[19],-1.05
same,glycan array binding signal (z-score),[20],-0.581
same,glycan array binding signal (z-score),[21],1.56
same,glycan array binding signal (z-score),[22],0.024

# 4 records picked at random from the list so far:
binder,measurement,setting,value
B1,glycan array binding signal (z-score),[2],0.162
same,glycan array binding signal (z-score),[10],-0.576
same,glycan array binding signal (z-score),[13],-0.699
same,glycan array binding signal (z-score),[1],-0.545
